The other results are listed elsewhere or left out. These are raw signals, not scaled to a control.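 In the initial screen, polymyxin B was used at a concentration that permeabilizes Salmonella's outer membrane but not its inner membrane. Maximum growth was set by DMSO wells with or without polymyxin B. Since plates varied, data were ranked per plate, and compounds giving the lowest OD600 advanced as hits.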
Test system: Salmonella enterica serovar Typhimurium SL1344
Assay: bacterial growth OD600 after 18 h with compound and polymyxin B; higher = more bacterial growth (less inhibition)
Conditions: 50 µM, Mueller-Hinton broth

Structure (SMILES) | bacterial growth OD600 (polymyxin B 1 µg/mL) | bacterial growth OD600 (polymyxin B 0.75 µg/mL)
COC(=O)c1ccc(-c2noc(CN(C)CCc3ccc(OC)c(OC)c3)n2)cc1 | 0.708 | –
Cc1nc(-c2ccncc2)ncc1C(C)NC(=O)c1sccc1Cl (stereo unspecified) | 0.839 | –
Cc1cnc(SCCN2CCOCC2)nc1C1CCCN(C(=O)CCc2ccc3c(c2)OCO3)C1 (stereo unspecified) | – | 0.907
Cc1cccc(CN2CCCC3(CCN(S(C)(=O)=O)C3)C2=O)c1 (stereo unspecified) | 0.83 | –
COc1ccc(CCC(=O)Nc2ccc(-c3nc(CNC(=O)Cc4cccs4)c(C)o3)cc2)cc1 | – | 0.82
Cc1nc(C)c(C(=O)N2CCc3c(cnc(C)c3CNC(=O)CSc3ccccc3)C2)s1 | – | 0.826
CCOC(=O)N1CCN(Cc2ccc3c(c2)CN(C(=O)c2ccoc2)CCO3)CC1 | – | 0.931
Cc1ccccc1-c1noc(-c2ccc(N[C@H]3CC[C@H](O)CC3)nc2)n1 | – | 0.001
CCOC(=O)C1(Cc2ccc(F)cc2F)CCCN(C(=O)c2c(C)nc3ncccn23)C1 (stereo unspecified) | 0.945 | –
CCOC(=O)N1CCN(C(=O)C2CC23CCN(C(=O)CSc2nc(C)cs2)CC3)CC1 (stereo unspecified) | – | 0.813
CO[C@H]1[C@H](NC(=O)c2ccco2)c2ccccc2C12CCN(Cc1[nH]c3c(C)cccc3c1C)CC2 | – | 0.782
CCN(CC)CCNC(=O)c1cc(OC)ccc1OC1CCN(C2CCCC2)CC1 | 1.18 | –
COCC(=O)N1CCC(C2CCN(c3ncccn3)CC2)C1 (stereo unspecified) | – | 0.724
CCCCn1c(CN(C)C(C)C)cnc1S(=O)(=O)CCCC(C)C | – | 0.361
Cc1ccc2c(c1)CN(CC(=O)NCCc1nc3ccccc3n1C)CC(c1ccsc1)O2 (stereo unspecified) | – | 0.003
CCOC(=O)C1(Cc2cccc(OC)c2)CCCN(Cc2cccc3c2OCO3)C1 (stereo unspecified) | 0.813 | –

As a short view, some entries already given:
Structure (SMILES) | bacterial growth OD600 (polymyxin B 1 µg/mL) | bacterial growth OD600 (polymyxin B 0.75 µg/mL)
Cc1nc(C)c(C(=O)N2CCc3c(cnc(C)c3CNC(=O)CSc3ccccc3)C2)s1 | – | 0.826
CCOC(=O)N1CCN(Cc2ccc3c(c2)CN(C(=O)c2ccoc2)CCO3)CC1 | – | 0.931

Additional records

Structure (SMILES) | bacterial growth OD600 (polymyxin B 1 µg/mL) | bacterial growth OD600 (polymyxin B 0.75 µg/mL)
CCOC(=O)C1(Cc2ccccc2C(F)(F)F)CCN(CCCn2cccn2)CC1 | 0.857 | –
COc1ccc(CN2CCCC(Nc3ccc(F)c(F)c3)C2)cc1OC (stereo unspecified) | 0.901 | –
CN(CC(O)c1ccccc1)C(=O)CC1(c2ccccc2)CC(=O)N(CCc2ccccn2)C1=O (stereo unspecified) | – | 0.897
Cc1ncc2c(c1CNC(=O)c1ccccc1F)CCN(C(=O)CCc1ccc3c(c1)OCO3)C2 | – | 0.719
COc1ccccc1OCC(=O)NC1CC(=O)N(Cc2ccccc2Cl)C1 (stereo unspecified) | 0.931 | –
CCc1ncc(CNC(C)c2cnc(N(C)C3CCCCC3)nc2C)cn1 (stereo unspecified) | – | 0.743
Cc1cc2cc(C(=O)N3CCCC(CO)(CCc4ccccc4)C3)ccc2o1 (stereo unspecified) | – | 0.227
O=C(Cc1c[nH]c2ccccc12)NCC1Cc2c(F)ccc(-c3ccncc3)c2O1 (stereo unspecified) | – | 0.803
Cc1ccsc1C(=O)N1CC[C@@H](N2CCN(c3ccccc3F)CC2)[C@H](O)C1 | 0.976 | –
Cc1c(-c2ccccc2F)[nH]c2ccc(CNC(=O)CCCn3cncn3)cc12 | 0.548 | –
COC(=O)CCCC(=O)N(C)C1CCCN(CCc2ccccc2)C1 (stereo unspecified) | 1.22 | –
Clc1ccccc1CNC1CCCc2nc(-c3cccnc3)ncc21 (stereo unspecified) | 0.821 | –
COc1cc(C(=O)N(C)Cc2ccc(F)cc2)ccc1OC1CCN(C(C)=O)CC1 | 0.929 | –
CCCC(=O)NC1CC(=O)N(Cc2cccc3ccccc23)C1 (stereo unspecified) | 0.993 | –
Cc1ncc2c(c1CNC(=O)Cc1cccs1)CCN(C(=O)/C=C/c1ccccc1Cl)C2 | – | 0.809
